Assay results from article doi:10.1101/2023.12.12.570754.
No constants are given. Whether binding was seen depends on the method and setting. Binding seen in cells or lysates may run through a third protein. Some entries that bind do so weakly or less than the wild type. For some of these results: Where a sequence is shown, tags or fusion partners need not be part of it.

Sequences of proteins named here, by UniProt entry; tags and fusion partners are left off.
UniProt P27641: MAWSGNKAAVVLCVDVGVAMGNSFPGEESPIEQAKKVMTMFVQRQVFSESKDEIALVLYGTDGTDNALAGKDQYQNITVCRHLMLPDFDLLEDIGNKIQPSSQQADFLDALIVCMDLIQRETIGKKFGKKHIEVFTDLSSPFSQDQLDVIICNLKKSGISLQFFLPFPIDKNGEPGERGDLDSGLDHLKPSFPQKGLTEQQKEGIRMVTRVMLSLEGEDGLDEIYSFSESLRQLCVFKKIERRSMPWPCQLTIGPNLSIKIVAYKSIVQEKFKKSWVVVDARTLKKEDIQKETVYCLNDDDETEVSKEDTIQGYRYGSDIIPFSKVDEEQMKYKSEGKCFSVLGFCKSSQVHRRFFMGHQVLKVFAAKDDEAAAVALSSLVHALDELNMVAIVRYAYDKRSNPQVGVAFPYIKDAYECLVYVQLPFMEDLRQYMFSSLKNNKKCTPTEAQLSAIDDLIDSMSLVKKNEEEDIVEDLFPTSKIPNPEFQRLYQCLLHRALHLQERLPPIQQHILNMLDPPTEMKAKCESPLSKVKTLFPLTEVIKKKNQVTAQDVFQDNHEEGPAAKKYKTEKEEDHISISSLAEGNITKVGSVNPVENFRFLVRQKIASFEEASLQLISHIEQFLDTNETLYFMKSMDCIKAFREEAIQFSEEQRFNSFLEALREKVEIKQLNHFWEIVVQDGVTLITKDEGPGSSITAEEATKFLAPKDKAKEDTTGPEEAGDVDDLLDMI
UniProt P23475: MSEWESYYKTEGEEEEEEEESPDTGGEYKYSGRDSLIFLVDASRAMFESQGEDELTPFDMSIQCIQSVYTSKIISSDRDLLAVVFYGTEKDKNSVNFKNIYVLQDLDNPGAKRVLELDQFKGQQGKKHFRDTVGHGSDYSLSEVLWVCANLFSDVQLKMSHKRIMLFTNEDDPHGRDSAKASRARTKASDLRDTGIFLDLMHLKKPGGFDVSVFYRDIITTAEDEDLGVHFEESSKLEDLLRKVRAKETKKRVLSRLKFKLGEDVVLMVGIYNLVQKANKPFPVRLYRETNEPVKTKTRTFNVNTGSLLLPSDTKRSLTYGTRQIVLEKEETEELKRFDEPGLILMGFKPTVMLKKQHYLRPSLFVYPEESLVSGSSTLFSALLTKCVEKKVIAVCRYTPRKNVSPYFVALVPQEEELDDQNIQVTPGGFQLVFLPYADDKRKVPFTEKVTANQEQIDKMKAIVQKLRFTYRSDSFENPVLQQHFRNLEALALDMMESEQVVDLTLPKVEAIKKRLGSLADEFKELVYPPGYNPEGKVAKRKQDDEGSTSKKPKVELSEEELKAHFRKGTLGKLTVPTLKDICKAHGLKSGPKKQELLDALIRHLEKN

Assays:
[1] = biological target: T1, N-terminal GFP-tagged RAG2 C-terminal region (aa351-527) fusion protein (human) (UniProt P55895); assay: pull-down
T1 sequence: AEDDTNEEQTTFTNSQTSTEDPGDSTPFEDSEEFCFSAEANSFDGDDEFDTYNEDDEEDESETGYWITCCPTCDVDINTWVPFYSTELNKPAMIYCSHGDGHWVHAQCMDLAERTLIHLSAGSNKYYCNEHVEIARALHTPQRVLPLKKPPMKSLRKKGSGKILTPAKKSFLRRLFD

[2] = biological target: T1, N-terminal GFP-tagged RAG2 C-terminal region (aa351-527) fusion protein (human); assay: proximity ligation
[3] = biological target: endogenous Ku80 (XRCC5) (mouse (endogenous in v-abl pro-B cells)) (UniProt P27641); assay: proximity ligation

Substance | binding [1] | binding [2] | binding [3]
endogenous Ku80 (XRCC5) (from UniProt P27641 1-732) | binds | binds | 
endogenous Ku70 (XRCC6) (from UniProt P23475 1-608) | binds |  | binds
